The values below are quoted from earlier work in paper PMC5412686 (Biopharmaceutics & Drug Disposition, 2017).

For data set [1] the following is noted: FaHIF, fasted human intestinal fluid; cited from earlier work.
For data set [2] the following is noted: Humans, ref Supplemental Table S2, cited from earlier work.
The conditions of data set [3]: pH 7.4; cited from earlier work.
The conditions of data set [4]: Rats, ref Supplemental Table S2, cited from earlier work.

Structures are written as SMILES. Read-outs that look alike come from different tables or passages of the source.

For the compound `COC(=O)C1=C(C)NC(C)=C(C(=O)OC)C1c1ccccc1[N+](=O)[O-]` [Nifedipine], in data set [1], the “Solubility (Biorelevant media or Buffer, pH 7.4)” value was 0.041 (FaHIF) mg/ml. Further, the figures for the CL in data set [2] (i.v.) and in data set [4] (i.v.) were 36 L/h and 8.7 mL/min/kg, respectively. Besides, the F in data set [2] (oral bioavailability) was 0.47; in data set [4] (oral bioavailability) it was 0.46. In data set [2], the Vss is 1.67 L/kg. Further, the “log D” value in data set [3] is recorded as 2.80.
